Measured values as given in patent publication US20220362404A1.
These are yes or no findings as the source states them, for the method shown. In cells and extracts the contact can be indirect. Some binding calls cover weakened binding; strength is not graded here. Sequences can lack the tags named with a protein.

Legend:
[1] = molecular target: full-length phosphorylated TDP-43 (409/410) (UniProt Q13148); assay: co-immunoprecipitation with anti-Flag, immunoblot with anti-phospho-TDP-43
variant TDP-43 (RxL>AxA) = variant TDP-43 (RxL>AxA) (UniProt Q13148); assay: co-immunoprecipitation with anti-Flag from HEK293 lysate, immunoblot
[2] = molecular target: HA-tagged TDP-43 (wild type) (UniProt Q13148); assay: as above
[3] = molecular target: Myc-tagged N-terminal fragment of TDP-43 (1-161) (UniProt Q13148); assay: co-immunoprecipitation with anti-myc from HEK293 lysate, immunoblot
[4] = molecular target: recombinant His-tagged TDP-43 (full length) (UniProt Q13148); assay: Ni-NTA pull-down with recombinant proteins, immunoblot

binding [1]	binding (variant TDP-43 (RxL>AxA))	binding [2]	binding [3]	binding [4]	Binder
binds	binds	binds	binds	–	Flag-tagged cyclin F (protein, not shown: small tags and cut ends) MGSGGVVHCRCAKCFCYPTKRRIRRRPRNLTILSLPEDVLFHILKWLSVEDILAVRAVHSQLKDLVDNHASVWACASFQELWPSPGNLKLFERAAEKGNFEAAVKLGIAYLYNEGLSVSDEARAEVNGLKASRFFSLAERLNVGAAPFIWLFIRPPWSVSGSCCKAVVHESLRAECQLQRTHKASILHCLGRVLSLFEDEEKQQQAHDLFEEAAHQGCLTSSYLLWESDRRTDVSDPGRCLHSFRKLRDYAAKGCWEAQLSLAKACANANQLGLEVRASSEIVCQLFQASQAVSKQQVFSVQKGLNDTMRYILIDWLVEVATMKDFTSLCLHLTVECVDRYLRRRLVPRYRLQLLGIACMVICTRFISKEILTIREAVWLTDNTYKYEDLVRMMGEIVSALEGKIRVPTVVDYKEVLLTLVPVELRTQHLCSFLCELSLLHTSLSAYAPARLAAAALLLARLTHGQTQPWTTQLWDLTGFSYEDLIPCVLSLHKKCFHDDAPKDYRQVSLTAVKQRFEDKRYGEISQEEVLSYSQLCAALGVTQDSPDPPTFLSTGEIHAFLSSPSGRRTKRKRENSLQEDRGSFVTTPTAELSSQEETLLGSFLDWSLDCCSGYEGDQESEGEKEGDVTAPSGILDVTVVYLNPEQHCCQESSDEEACPEDKGPQDPQALALDTQIPATPGPKPLVRTSREPGKDVTTSGYSSVSTASPTSSVDGGLGALPQPTSVLSLDSDSHTQPCHHQARKSCLQCRPPSPPESSVPQQQVKRINLCIHSEEEDMNLGLVRL
–	–	–	–	binds	recombinant full-length GST-tagged cyclin F (protein, not shown: a dimerising Fc or GST) MGSGGVVHCRCAKCFCYPTKRRIRRRPRNLTILSLPEDVLFHILKWLSVEDILAVRAVHSQLKDLVDNHASVWACASFQELWPSPGNLKLFERAAEKGNFEAAVKLGIAYLYNEGLSVSDEARAEVNGLKASRFFSLAERLNVGAAPFIWLFIRPPWSVSGSCCKAVVHESLRAECQLQRTHKASILHCLGRVLSLFEDEEKQQQAHDLFEEAAHQGCLTSSYLLWESDRRTDVSDPGRCLHSFRKLRDYAAKGCWEAQLSLAKACANANQLGLEVRASSEIVCQLFQASQAVSKQQVFSVQKGLNDTMRYILIDWLVEVATMKDFTSLCLHLTVECVDRYLRRRLVPRYRLQLLGIACMVICTRFISKEILTIREAVWLTDNTYKYEDLVRMMGEIVSALEGKIRVPTVVDYKEVLLTLVPVELRTQHLCSFLCELSLLHTSLSAYAPARLAAAALLLARLTHGQTQPWTTQLWDLTGFSYEDLIPCVLSLHKKCFHDDAPKDYRQVSLTAVKQRFEDKRYGEISQEEVLSYSQLCAALGVTQDSPDPPTFLSTGEIHAFLSSPSGRRTKRKRENSLQEDRGSFVTTPTAELSSQEETLLGSFLDWSLDCCSGYEGDQESEGEKEGDVTAPSGILDVTVVYLNPEQHCCQESSDEEACPEDKGPQDPQALALDTQIPATPGPKPLVRTSREPGKDVTTSGYSSVSTASPTSSVDGGLGALPQPTSVLSLDSDSHTQPCHHQARKSCLQCRPPSPPESSVPQQQVKRINLCIHSEEEDMNLGLVRL
